Data taken from US12656355B2, “Two phase indicator displacement assay” (The Florida State University Research Foundation, Inc., priority 2022, dated 2026).

Test: Partitioning indicator displacement assay (PIDA), CTAB/octanol drops with blue 1 dye indicator
Format: physicochemical
Conditions: for detection of analyte by PIDA with blue dye as an indicator (specificity): CTAB-blue 1 dye system, 7.5 mM CTAB octanol drops, 10 minutes (FIG. 7B)
Excerpt: The organic drops with fully dissolved indicator were exposed to an aqueous phase containing the target analyte. Over time the target analyte displaced the indicator and partitioned into the organic phase. In this experiment, the sensor had various concentrations of CTAB dissolved into the organic phase and used the maximum saturation ratio of blue dye to CTAB (Mechanism paper) to saturate each organic phase solution with the indicator, blue FCF dye. The displacement of blue dye from the organic phase was measured by monitoring optical transmittance using a color camera.
Five concentrations (60 mM, 30 mM, 15 mM, 7.5 mM, and 3.75 mM) of CTAB in octanol were placed in a tube along with 50 μM of blue dye dissolved in D.I. water, set on a shaker and allowed to equilibrate. An array was made with a sample of each concentration with the blue dye; with 11 drops (replicates) of each concentration and viewed using a DinoLite microscope. Four-hundred μM of aqueous red dye was flowed into the array and a picture was taken before addition of red dye and then every 5 seconds over a 15 minute period. […] Images were analyzed in imageJ, using […] within each replicate and 25 points for background analysis. The replicates were then separated by channel as gray values of the micrographs, and data normalized into absorbance values by subtracting the original dye free data from each replicate. The replicates were averaged per concentration and the data was transferred into percent transmittance using the formula […].
The organic solute cetyltrimethylammonium bromide (CTAB) was purchased from Sigma-Aldrich (St. Louis, USA). Erioglaucine disodium salt (Blue 1) was purchased from Sigma-Aldrich (St. Louis, MO, USA). 10 mL of 6 mM, 3 mM, 1.5 mM, 0.75 mM, and 0.375 mM blue 1 dye dissolved in deionized water and added to separate tubes containing 2 mL of different concentrations of CTAB in octanol (60 mM, 30 mM, 15 mM, 7.5 mM, and 3.75 mM), set on a shaker and allowed to equilibrate. […]
Samples were imaged with a digital microscope (Dino-Lite Pro2 AD-413T or Dino-Lite Edge AM4115ZT) at 100 Å˜ magnification. […] The time dependent partitioning was recorded at one frame per 20 second intervals.
Images were analyzed in imageJ, using 10 points within each replicate and 25 points for background analysis. […] The data was then converted into absorbance using the formula […]. Using the absorbance data, and the measured initial blue dye concentrations, the data was converted to blue dye concentration and then the replicates were averaged per concentration and the standard deviation was calculated. […] The graphs are made from each of the 5 concentrations with their associated normalized absorbance values. […]

SMILES	detection of analyte by PIDA with blue dye as an indicator (specificity)	displacement of the blue dye indicator by analyte (all CTAB concentrations (3.75, 7.5, 15, 30 mM), given enough time)
Nc1ncnc2c1ncn2[C@@H]1O[C@H](COP(=O)([O-])OP(=O)([O-])OP(=O)(O)O)[C@@H](O)[C@H]1O.O.[Na+].[Na+] [ATP, Adenosine 5′-triphosphate disodium salt hydrate]	unable to detect	
O=C(O)CC(O)(CC(=O)O)C(=O)O [citric acid]	unable to detect	
COc1cc(S(=O)(=O)[O-])c(C)cc1N=Nc1c(O)ccc2cc(S(=O)(=O)[O-])ccc12.[Na+].[Na+] [red dye, Allura red AC]	specific	displacement of the blue dye indicator
